Taken from: PubChem BioAssay AID686937 (Drosophila RNAi Screening Center, 2013)
Test: 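Knock-downs that reduce output of a secreted reporter enzyme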 (primary screen). Cells: Drosophila S2 cells expressing secreted horseradish peroxidase. Reagents: long dsRNA against Drosophila genes. Timing: about 5.5 days (5 days dsRNA, then 12 h reporter induction). Treatment: reporter expression induced after 5 days of dsRNA, read 12 h later; inducer not stated. Measurement: 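Chemiluminescent measurement of peroxidase in the medium 12 h after reporter induction, following 5 days of dsRNA, given as a z-score per plate; higher means more secretion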. Reading the numbers: z-score: higher = more reporter secreted into medium.
The deposit covers about 23,000 reagents; this is an unselected part of those that have a named target and a result. 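Reduced-secretion tags in replicate 1 do not always agree with the z-scores; no criterion for assigning the tags was given.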 Reagents against one gene are numbered here. Names joined by + are all predicted targets of the reagent. Not stated in the record: the amount of reagent.

Gene | reagent | z-score, replicate 1 | z-score, replicate 2 | z-score, replicate 3 | z-score, replicate 4 | phenotype, replicate 1
NT5E-2 (Ecto-5'-nucleotidase 2) | 1 | 0.42 | 0.56 | – | – | –
bero (belly roll) | 1 | 0.18 | 0.19 | – | – | –
msl-2 (male-specific lethal 2) | 1 | 0.23 | 0.37 | – | – | –
tap (target of Poxn) | 1 | -0.53 | -0.01 | – | – | –
mIF3 (mitochondrial translation initiation factor 3) | 1 | 0.27 | 0.03 | – | – | –
Spn28Db (Serpin 28Db) | 1 | 0.6 | -0.03 | – | – | –
CG9919 | 1 | 0.4 | 0.6 | – | – | –
Cpr100A (Cuticular protein 100A) | 1 | 0.01 | 0.17 | – | – | –
Obp57c + Obp57b | 1 | -0.62 | -0.78 | – | – | reduced secretion
CG9030 | 1 | 0.06 | 0.27 | – | – | –
Dys (Dystrophin) | 1 | 0.4 | 0.64 | – | – | –
Dys (Dystrophin) | 2 | -0.28 | 0.16 | – | – | –
Dys (Dystrophin) | 3 | 0.41 | 0.57 | – | – | –
Dys (Dystrophin) | 4 | 0.28 | 0.33 | – | – | –
Dys (Dystrophin) | 5 | 0.28 | 0.14 | – | – | –
Dys (Dystrophin) | 6 | 0.24 | 0.33 | – | – | –
Dys (Dystrophin) | 7 | 0.2 | 0.24 | – | – | –
salto | 1 | 0.2 | 0.35 | – | – | –
CG8945 | 1 | 0.16 | 0.34 | – | – | –
CG8945 | 2 | 0.34 | 0.4 | – | – | –
Mp20 (Muscle protein 20) | 1 | 0.34 | 0.31 | – | – | –
Rb97D (Ribonuclear protein at 97D) | 1 | 0.51 | 0.54 | – | – | –
CG42564 | 1 | 0.28 | 0.16 | – | – | –
CG7236 | 1 | -0.12 | -0.35 | – | – | –
ppk21 (pickpocket 21) | 1 | 0.2 | 0.32 | – | – | –
Sr-CIII (Scavenger receptor class C, type III) | 1 | -1.33 | 0.17 | – | – | –
GstD1 (Glutathione S transferase D1) | 1 | 0.05 | 0.2 | – | – | –
Met (Methoprene-tolerant) | 1 | 0.18 | 0.37 | – | – | –
Tsp42Ej (Tetraspanin 42Ej) | 1 | 0.25 | 0.41 | – | – | –
Ndc80 | 1 | -0.29 | -0.56 | – | – | –
Ndc80 | 2 | -2.48 | 0.16 | – | – | reduced secretion
Vha68-2 (Vacuolar H[+] ATPase 68 kDa subunit 2) | 1 | -0.23 | 0.17 | – | – | –
Or65c (Odorant receptor 65c) | 1 | 0.92 | 0.71 | – | – | –
CG9328 | 1 | -0.04 | 0.18 | – | – | –
asRNA:CR42743 + CG34162 | 1 | 0.2 | 0.15 | – | – | –
ATPsynB (ATP synthase, subunit B) | 1 | -1.85 | -1.96 | – | – | reduced secretion
Skadu | 1 | -1.45 | 0.21 | – | – | –
Delta | 1 | 0.38 | 0.38 | – | – | –
mei-9 (meiotic 9) | 1 | 0.34 | 0.48 | – | – | –
CG33310 | 1 | 0.42 | 0.1 | – | – | –
CG32762 | 1 | 0.32 | 0.52 | 0.43 | 0.31 | –
CG31274 + MESK4 | 1 | 0.2 | 0.29 | – | – | –
Osi24 (Osiris 24) | 1 | 0.01 | 0.49 | – | – | –
CG42336 | 1 | 0.17 | 0.16 | – | – | –
CG42336 | 2 | 0.11 | 0.18 | – | – | –
CG42336 | 3 | -4.04 | 0.31 | 0.18 | -4.26 | –
lectin-37Da | 1 | 0.09 | -0.14 | 0.33 | 0.37 | –
lectin-37Da | 2 | 0.75 | 0.12 | – | – | –
Pka-R2 (Protein kinase, cAMP-dependent, regulatory subunit type 2) | 1 | 0.49 | 0.39 | – | – | –
mesh | 1 | 0.75 | 0.51 | 0.38 | 0.26 | –
mesh | 2 | 0.1 | 0.03 | – | – | –
mesh | 3 | 0.36 | 0.27 | – | – | –
CG4363 | 1 | 0.02 | 0.25 | – | – | –
CG34409 | 1 | 0.25 | 0.38 | – | – | –
CG34409 | 2 | -0.31 | 0.35 | – | – | –
sle (slender lobes) | 1 | 0.28 | 0.45 | – | – | –

6 entries already listed, ordered by “z-score, replicate 2”, lowest first:
Gene | reagent | z-score, replicate 1 | z-score, replicate 2 | z-score, replicate 3 | z-score, replicate 4 | phenotype, replicate 1
Ndc80 | 1 | -0.29 | -0.56 | – | – | –
asRNA:CR42743 + CG34162 | 1 | 0.2 | 0.15 | – | – | –
Ndc80 | 2 | -2.48 | 0.16 | – | – | reduced secretion
Vha68-2 (Vacuolar H[+] ATPase 68 kDa subunit 2) | 1 | -0.23 | 0.17 | – | – | –
CG9328 | 1 | -0.04 | 0.18 | – | – | –
Or65c (Odorant receptor 65c) | 1 | 0.92 | 0.71 | – | – | –
